{"source": "PubChem BioAssay AID686937 – Drosophila RNAi Screening Center | 2013", "screen": "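Genes in the fly needed for secretion of protein constitutively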 (primary screen)", "cell system": "Drosophila S2 cells expressing secreted horseradish peroxidase", "knock-down reagent": "long dsRNA against Drosophila genes", "time to read-out": "about 5.5 days (5 days dsRNA, then 12 h reporter induction)", "treatment": "reporter expression induced after 5 days of dsRNA, read 12 h later; inducer not stated", "measured": "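After 5 days of dsRNA and 12 h of reporter induction, medium peroxidase read by chemiluminescence and scored as per-plate z-score; higher values mean more reporter released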", "scale": "z-score: higher = more reporter secreted into medium", "note": "The deposit covers about 23,000 reagents; below is an unselected part of those with a known target gene and a result. 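Reduced-secretion tags in replicate 1 do not always agree with the z-scores; no criterion for assigning the tags was given.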 Reagent sequences are not shown. The record does not give: the amount of reagent."}
{"Target gene":"Exo84","PubChem SID":"SID104195757","z-score, replicate 1":0.08,"z-score, replicate 2":-0.03}
{"Target gene":"rols","PubChem SID":"SID104189665","z-score, replicate 1":-0.66,"z-score, replicate 2":-0.55}
{"Target gene":"rols","PubChem SID":"SID104190046","z-score, replicate 1":0.27,"z-score, replicate 2":0.11}
{"Target gene":"rols","PubChem SID":"SID104190328","z-score, replicate 1":0.32,"z-score, replicate 2":0.38}
{"Target gene":"CG11131","PubChem SID":"SID104191428","z-score, replicate 1":0.61,"z-score, replicate 2":-0.37}
{"Target gene":"CG11131","PubChem SID":"SID104201406","z-score, replicate 1":-0.25,"z-score, replicate 2":-0.48}
{"Target gene":"CG15153","PubChem SID":"SID104182246","z-score, replicate 1":-0.22,"z-score, replicate 2":0.05}
{"Target gene":"NijA","PubChem SID":"SID104190429","z-score, replicate 1":-0.04,"z-score, replicate 2":0.46}
{"Target gene":"CG34376","PubChem SID":"SID104194487","z-score, replicate 1":0,"z-score, replicate 2":0.13}
{"Target gene":"CG34376","PubChem SID":"SID104194488","z-score, replicate 1":0.01,"z-score, replicate 2":0.18}
{"Target gene":"CG34376","PubChem SID":"SID104194493","z-score, replicate 1":-0.28,"z-score, replicate 2":0.03}
{"Target gene":"Opa1","PubChem SID":"SID104186983","z-score, replicate 1":0.43,"z-score, replicate 2":0.51}
{"Target gene":"CG12307","PubChem SID":"SID104181951","z-score, replicate 1":0.22,"z-score, replicate 2":-0.12}
{"Target gene":"CG13937","PubChem SID":"SID104188198","z-score, replicate 1":0.73,"z-score, replicate 2":0.59}
{"Target gene":"AANATL3","PubChem SID":"SID104181881","z-score, replicate 1":-0.05,"z-score, replicate 2":0.2}
{"Target gene":"CG3117","PubChem SID":"SID104180360","z-score, replicate 1":0.26,"z-score, replicate 2":0.24}
{"Target gene":"hob","PubChem SID":"SID104188218","z-score, replicate 1":0.3,"z-score, replicate 2":0.42}
{"Target gene":"Tnks","PubChem SID":"SID104193946","z-score, replicate 1":0.63,"z-score, replicate 2":0.54}

Not a retest: entries from further up.
{"Target gene":"CG34376","PubChem SID":"SID104194493","z-score, replicate 1":-0.28,"z-score, replicate 2":0.03}
{"Target gene":"Opa1","PubChem SID":"SID104186983","z-score, replicate 1":0.43,"z-score, replicate 2":0.51}

Continued.
{"Target gene":"INPP5E","PubChem SID":"SID104189515","z-score, replicate 1":0.26,"z-score, replicate 2":0.24}
{"Target gene":"CARPA","PubChem SID":"SID104197697","z-score, replicate 1":-0.03,"z-score, replicate 2":0.26}
{"Target gene":"CARPA","PubChem SID":"SID104201326","z-score, replicate 1":0.15,"z-score, replicate 2":-0.21}
{"Target gene":"mRRF1","PubChem SID":"SID104190213","z-score, replicate 1":0.44,"z-score, replicate 2":0.23}
{"Target gene":"CG8343","PubChem SID":"SID104184697","z-score, replicate 1":0.06,"z-score, replicate 2":0.1}
{"Target gene":"Tsp47F","PubChem SID":"SID104187117","z-score, replicate 1":-0.82,"z-score, replicate 2":-0.86}
{"Target gene":"CG43071","PubChem SID":"SID104185545","z-score, replicate 1":0.38,"z-score, replicate 2":0.25}
{"Target gene":"CG31404","PubChem SID":"SID104195289","z-score, replicate 1":0.38,"z-score, replicate 2":0.46}
{"Target gene":"Usp39","PubChem SID":"SID104199824","z-score, replicate 1":0.16,"z-score, replicate 2":0.04}
